Results are given in words; binding and its absence hold for the method and conditions named. Binding seen in cells or lysates may run through a third protein. Some results given as binding are weak or reduced against the parent protein; the word gives no strength. For part of these data: Sequences can lack the tags named with a protein. Blank lines part the entries; values can stand above or below the molecule they belong to.
Experiments:
[1] = biological target: T1, chick Cdh7 (cadherin-7), transiently expressed in NIH3T3 cells (chick) (UniProt Q90763); test: co-IP; NIH3T3 cells transiently expressing Cdh7, cultured without or with the indicated doses of rN-Shh; pull-down with anti-Cdh7 mAb; blots for Gli3FL, Sufu, Gli3R, GSK3β
T1 sequence: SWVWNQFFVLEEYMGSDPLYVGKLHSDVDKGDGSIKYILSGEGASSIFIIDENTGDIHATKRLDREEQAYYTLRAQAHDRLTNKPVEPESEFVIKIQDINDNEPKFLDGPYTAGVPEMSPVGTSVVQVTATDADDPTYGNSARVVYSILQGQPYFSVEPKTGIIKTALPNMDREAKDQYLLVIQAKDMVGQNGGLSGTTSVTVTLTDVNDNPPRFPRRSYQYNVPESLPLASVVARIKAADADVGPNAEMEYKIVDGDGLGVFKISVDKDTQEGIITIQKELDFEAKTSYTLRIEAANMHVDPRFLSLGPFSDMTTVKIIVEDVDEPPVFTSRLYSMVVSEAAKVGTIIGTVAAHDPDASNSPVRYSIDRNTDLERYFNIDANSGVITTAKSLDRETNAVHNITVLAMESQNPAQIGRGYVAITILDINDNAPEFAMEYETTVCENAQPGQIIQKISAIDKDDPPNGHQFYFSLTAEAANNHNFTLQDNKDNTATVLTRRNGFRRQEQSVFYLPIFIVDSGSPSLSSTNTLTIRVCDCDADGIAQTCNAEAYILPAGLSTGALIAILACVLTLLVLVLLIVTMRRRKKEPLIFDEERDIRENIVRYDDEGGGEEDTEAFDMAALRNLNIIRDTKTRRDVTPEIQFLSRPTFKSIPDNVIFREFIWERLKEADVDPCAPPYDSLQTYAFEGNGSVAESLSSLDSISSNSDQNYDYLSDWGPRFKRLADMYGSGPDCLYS

Amino acid sequences for entries named in this document (tags omitted).
UniProt Q61602: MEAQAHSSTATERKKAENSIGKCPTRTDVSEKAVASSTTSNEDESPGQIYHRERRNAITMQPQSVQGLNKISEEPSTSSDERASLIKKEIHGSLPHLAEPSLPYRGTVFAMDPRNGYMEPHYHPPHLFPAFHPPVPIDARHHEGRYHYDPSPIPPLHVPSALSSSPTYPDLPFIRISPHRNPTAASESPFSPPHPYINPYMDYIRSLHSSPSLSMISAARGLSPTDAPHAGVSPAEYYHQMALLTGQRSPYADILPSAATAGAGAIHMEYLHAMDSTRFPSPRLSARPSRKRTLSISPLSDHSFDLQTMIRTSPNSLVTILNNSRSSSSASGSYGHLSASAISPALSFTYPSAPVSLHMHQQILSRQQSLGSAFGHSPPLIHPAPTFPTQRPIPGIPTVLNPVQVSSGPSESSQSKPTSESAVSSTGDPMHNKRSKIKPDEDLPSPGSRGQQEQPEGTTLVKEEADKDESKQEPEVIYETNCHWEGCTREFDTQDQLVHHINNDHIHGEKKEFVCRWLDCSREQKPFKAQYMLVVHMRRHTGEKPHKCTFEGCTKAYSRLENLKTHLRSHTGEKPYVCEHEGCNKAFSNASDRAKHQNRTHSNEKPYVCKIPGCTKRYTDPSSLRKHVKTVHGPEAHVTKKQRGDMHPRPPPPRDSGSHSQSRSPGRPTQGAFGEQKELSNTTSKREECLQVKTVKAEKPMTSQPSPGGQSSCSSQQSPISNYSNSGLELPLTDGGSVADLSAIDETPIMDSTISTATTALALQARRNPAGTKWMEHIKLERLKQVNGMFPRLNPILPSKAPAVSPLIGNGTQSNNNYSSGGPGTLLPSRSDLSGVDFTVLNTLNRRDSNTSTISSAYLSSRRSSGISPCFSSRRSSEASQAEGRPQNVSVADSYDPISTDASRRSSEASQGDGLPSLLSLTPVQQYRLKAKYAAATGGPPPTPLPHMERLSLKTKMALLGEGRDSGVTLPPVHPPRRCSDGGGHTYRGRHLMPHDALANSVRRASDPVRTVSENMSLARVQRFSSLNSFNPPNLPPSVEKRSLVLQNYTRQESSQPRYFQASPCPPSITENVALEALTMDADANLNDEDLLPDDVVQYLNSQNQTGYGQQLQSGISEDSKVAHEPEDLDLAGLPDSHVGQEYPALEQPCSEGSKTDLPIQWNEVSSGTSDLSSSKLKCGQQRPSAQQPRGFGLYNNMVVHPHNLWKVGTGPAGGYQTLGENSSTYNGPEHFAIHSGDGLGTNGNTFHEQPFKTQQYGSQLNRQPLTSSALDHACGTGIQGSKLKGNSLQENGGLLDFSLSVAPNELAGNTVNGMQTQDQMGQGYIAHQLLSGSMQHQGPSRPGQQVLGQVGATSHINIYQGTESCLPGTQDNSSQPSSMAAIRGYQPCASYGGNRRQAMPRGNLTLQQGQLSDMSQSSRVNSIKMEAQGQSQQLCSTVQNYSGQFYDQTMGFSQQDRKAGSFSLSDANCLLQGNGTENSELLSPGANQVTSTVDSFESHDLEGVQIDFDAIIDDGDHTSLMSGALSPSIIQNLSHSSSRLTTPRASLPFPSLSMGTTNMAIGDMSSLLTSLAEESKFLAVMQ
UniProt Q9IA31: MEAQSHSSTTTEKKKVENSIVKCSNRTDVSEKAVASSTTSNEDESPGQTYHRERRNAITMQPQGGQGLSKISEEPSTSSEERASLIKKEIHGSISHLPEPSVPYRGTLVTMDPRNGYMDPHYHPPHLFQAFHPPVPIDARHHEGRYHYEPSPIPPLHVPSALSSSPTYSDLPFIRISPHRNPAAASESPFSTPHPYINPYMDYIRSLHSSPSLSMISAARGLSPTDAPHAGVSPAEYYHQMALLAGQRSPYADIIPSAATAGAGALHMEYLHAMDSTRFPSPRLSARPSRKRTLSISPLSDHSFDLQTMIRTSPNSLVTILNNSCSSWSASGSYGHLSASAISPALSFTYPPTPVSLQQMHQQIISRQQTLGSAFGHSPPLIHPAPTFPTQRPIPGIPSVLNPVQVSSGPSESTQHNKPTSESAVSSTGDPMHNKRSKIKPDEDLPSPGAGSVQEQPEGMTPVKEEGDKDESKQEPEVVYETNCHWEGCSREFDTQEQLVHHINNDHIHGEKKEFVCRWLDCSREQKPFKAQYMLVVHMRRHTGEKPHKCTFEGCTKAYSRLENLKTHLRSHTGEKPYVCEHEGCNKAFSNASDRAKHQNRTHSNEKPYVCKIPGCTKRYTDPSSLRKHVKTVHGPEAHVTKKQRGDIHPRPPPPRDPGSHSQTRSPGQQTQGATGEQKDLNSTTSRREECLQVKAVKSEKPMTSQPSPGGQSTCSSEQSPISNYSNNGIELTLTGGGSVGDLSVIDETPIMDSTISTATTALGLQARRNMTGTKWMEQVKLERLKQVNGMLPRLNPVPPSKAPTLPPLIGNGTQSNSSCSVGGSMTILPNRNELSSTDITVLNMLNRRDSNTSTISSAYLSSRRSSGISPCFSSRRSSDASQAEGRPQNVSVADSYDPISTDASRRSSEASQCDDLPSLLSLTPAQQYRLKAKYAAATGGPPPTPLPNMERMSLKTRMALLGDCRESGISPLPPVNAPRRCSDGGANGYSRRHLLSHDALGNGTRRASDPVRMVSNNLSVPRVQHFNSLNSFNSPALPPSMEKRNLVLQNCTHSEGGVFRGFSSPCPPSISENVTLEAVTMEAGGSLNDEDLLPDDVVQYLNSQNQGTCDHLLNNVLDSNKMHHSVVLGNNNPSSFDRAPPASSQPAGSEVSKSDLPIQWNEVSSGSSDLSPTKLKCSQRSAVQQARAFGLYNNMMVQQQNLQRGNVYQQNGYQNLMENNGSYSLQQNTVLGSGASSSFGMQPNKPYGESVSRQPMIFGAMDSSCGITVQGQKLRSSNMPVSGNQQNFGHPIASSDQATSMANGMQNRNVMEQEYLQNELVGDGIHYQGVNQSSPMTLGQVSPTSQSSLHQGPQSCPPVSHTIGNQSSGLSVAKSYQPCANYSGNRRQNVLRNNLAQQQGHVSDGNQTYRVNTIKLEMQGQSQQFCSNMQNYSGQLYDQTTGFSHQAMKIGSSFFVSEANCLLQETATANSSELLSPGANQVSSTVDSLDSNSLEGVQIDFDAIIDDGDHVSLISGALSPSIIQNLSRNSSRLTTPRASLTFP

[2] = biological target: T2, endogenous Cdh7 of chick embryonic spinal cord (chick (endogenous in HH st. 17 chick embryo)) (UniProt Q90763); test: co-IP; endogenous proteins in HH st. 17 chick embryo spinal cord lysates; immunoprecipitation with anti-Shh, anti-Cdh7 or anti-Ncdh mAbs
T2 sequence: T1 sequence

- binding [1]: binds
Molecule: Gli3FL (full-length Gli3) of NIH3T3 cells (from UniProt Q61602 1-1583)

- binding [2]: binds
Molecule: endogenous Gli3FL of chick embryonic spinal cord (from UniProt Q9IA31 1-1544)

- binding [1]: binds
B1: suppressor-of-fused (Sufu) of NIH3T3 cells (protein, UniProt Q9Z0P7 1-484)
chain: MAELRPSVAPGPAAPPASGPSAPPAFASLFPPGLHAIYGECRRLYPDQPNPLQVTAIVKYWLGGPDPLDYVSMYRNMGSPSANIPEHWHYISFGLSDLYGDNRVHEFTGTDGPSGFGFELTFRLKRETGESAPPTWPAELMQGLARYVFQSENTFCSGDHVSWHSPLDNSESRIQHMLLTEDPQMQPVRTPFGVVTFLQIVGVCTEELHSAQQWNGQGILELLRTVPIAGGPWLITDMRRGETIFEIDPHLQERVDKGIETDGSNLSGVSAKCAWDDLSRPPEDEEDSRSICLGTQPRRLSGKDTEQIRETLRRGLEINSKPVLPPINSQRQNGLTHDRAPSRKDSLGSDSSTAIIPHELIRTRQLESVHLKFNQESGALIPLCLRGRLLHGRHFTYKSITGDMAITFVSTGVEGAFATEEHPYAAHGPWLQILLTEEFVEKMLEDLEDLTSPEEFKLPKEYSWPEKKLKVSILPDVVFDSPLH
